Some entries share one result that the patent states for a list of compounds. For at least one compound, name, drawing or mass did not settle the structure. No end group written: not given here.
Molecular target: T1, rat GalR3 receptor (Rattus norvegicus, UniProt O88626)
T1 construct: expressed in transfected cells; host or cells: COS-7 cells (ATCC CRL 1651), transient electroporation with pCR 3.1; membrane preparation
T1 sequence (O88626 1-370 P53Q/R54G/T57Q/P127Q/R137C/A150G/W176L/A183R/T188A/F210L/C272I/R311C): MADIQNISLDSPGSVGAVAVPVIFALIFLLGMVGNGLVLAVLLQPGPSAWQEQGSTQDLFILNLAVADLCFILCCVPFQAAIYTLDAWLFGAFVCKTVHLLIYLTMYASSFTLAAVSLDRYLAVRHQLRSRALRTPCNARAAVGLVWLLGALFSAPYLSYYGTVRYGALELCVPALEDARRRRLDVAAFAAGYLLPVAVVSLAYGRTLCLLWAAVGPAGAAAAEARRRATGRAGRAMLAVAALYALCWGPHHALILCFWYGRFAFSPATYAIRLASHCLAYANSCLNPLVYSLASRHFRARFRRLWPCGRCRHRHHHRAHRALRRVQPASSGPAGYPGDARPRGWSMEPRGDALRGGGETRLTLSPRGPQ
Assay: 125I-porcine galanin competition binding to membranes of COS-7 cells transfected with rat GalR3 receptor
Conditions: inhibition of binding of 0.3 nM 125I-porcine galanin, 20 μg membrane protein, room temperature 1 hour; Cheng and Prusoff; FIG. 2
Method: Transfection was carried out as follows. Confluent COS-7 cells (ATCC CRL 1651) grown in DMEVI supplemented with 10% fetal calfserum (FCS) with 100 units/ml penicillin and 100 μg/ml streptomycin were split 1:6 into 150 mm dishes (Nunc) three days prior to transfection. On the day of transfection, the cells were approximately 90% confluent and trypsinized off plates and washed two times with PBS without Mg^++ and Ca^++. The cells were resuspended in Krebs Ringer's buffer at a density of approximately 1.2×10^7 cells/ml. […]
To each plate, 5 ml of 5 mM Hepes buffer (pH 7.4), 0.1 mM PMSF, and 0.1 mg/ml bacitracin were added and incubated at room temperature for 15 minutes. […] Protein concentrations were determined using a […] (bicinchoninic acid) method (Pierce, Rockford, Ill.).
Binding of ^125I-porcine-galanin to the membrane preparations was performed in a buffer containing 25 mM Tris-Cl (pH7.4), 1% bovine serim albumin (w/v), 0.1% bacitracin, 2 μg/ml leupeptin and 10 mM MgCl2. […] All data were analyzed using non-linear regression software (Prism, GraphPad, San Diego, Calif.), and the Ki was calculated using the method of Cheng and Prusoff [Biochem. Pharmacol. 22:3099-3108 (1973)].

LLGPHAIDNHR [galanin(10-20)]
Ki: > 1 µM
